For 4 molecules, binding results are on record in PMC4429374.

Results are given in words; binding and its absence hold for the method and conditions named. Binding seen in cells or lysates may run through a third protein. Some entries that bind do so weakly or less than the wild type. For some of these results: Where a sequence is shown, tags or fusion partners need not be part of it.

Experiment [1] addresses T1, His-tagged p73 (human (cDNA from MCF-7)) (UniProt O15350).
T1 sequence: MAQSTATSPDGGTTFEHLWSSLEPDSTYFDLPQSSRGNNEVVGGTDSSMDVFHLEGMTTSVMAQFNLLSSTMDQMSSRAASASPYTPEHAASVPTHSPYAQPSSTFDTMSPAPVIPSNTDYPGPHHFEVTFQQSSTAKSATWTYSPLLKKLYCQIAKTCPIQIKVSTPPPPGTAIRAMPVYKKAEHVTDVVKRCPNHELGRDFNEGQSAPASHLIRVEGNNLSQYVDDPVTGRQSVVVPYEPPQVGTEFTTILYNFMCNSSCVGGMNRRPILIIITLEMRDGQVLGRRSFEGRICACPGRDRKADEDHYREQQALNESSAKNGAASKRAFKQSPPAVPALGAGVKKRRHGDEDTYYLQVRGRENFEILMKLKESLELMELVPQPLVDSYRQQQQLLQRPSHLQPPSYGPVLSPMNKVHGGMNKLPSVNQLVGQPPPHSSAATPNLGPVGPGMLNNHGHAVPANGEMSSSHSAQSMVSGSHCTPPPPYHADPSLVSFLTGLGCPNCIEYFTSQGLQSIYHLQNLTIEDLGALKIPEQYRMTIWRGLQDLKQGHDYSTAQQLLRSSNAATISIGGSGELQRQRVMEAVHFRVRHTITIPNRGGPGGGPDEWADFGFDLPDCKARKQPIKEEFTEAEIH
Put plainly: co-IP; cells cotransfected with Flag-tagged Restin and His-tagged p73; lysed in RIPA buffer; immunoprecipitated with anti-Flag or anti-His antibody (mouse IgG as control) and protein G-Sepharose, 4°C; blotted with His or Flag antibodies.

Experiment [2] concerns the target p53 (endogenous) (human (endogenous in MCF-7)) (UniProt P04637). Kind of experiment: co-IP; endogenous proteins; MCF-7 cell extracts immunoprecipitated with mouse IgG or anti-Restin, anti-p73 or anti-p53 antibody, then blotted.
Experiment [3] concerns the target T2, Flag-tagged Restin (human (cDNA from MCF-7)) (UniProt Q9H213).
T2 sequence: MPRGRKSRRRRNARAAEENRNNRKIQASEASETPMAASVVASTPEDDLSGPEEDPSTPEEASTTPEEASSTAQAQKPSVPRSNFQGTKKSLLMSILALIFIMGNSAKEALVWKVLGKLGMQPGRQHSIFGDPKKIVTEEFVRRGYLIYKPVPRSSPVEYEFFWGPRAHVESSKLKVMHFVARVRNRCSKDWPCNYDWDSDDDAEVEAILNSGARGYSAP
Put plainly: co-IP; cells cotransfected with Flag-tagged Restin and His-tagged p73; lysed in RIPA buffer; immunoprecipitated with anti-Flag or anti-His antibody (mouse IgG as control) and protein G-Sepharose, 4°C; blotted with His or Flag antibodies.

In experiment [4] the target is T3, Restin (endogenous) (human (endogenous in MCF-7)) (UniProt Q9H213).
T3 sequence: T2 sequence
Put plainly: co-IP; endogenous proteins; MCF-7 cell extracts immunoprecipitated with mouse IgG or anti-Restin, anti-p73 or anti-p53 antibody, then blotted.

B1: Flag-tagged Restin (protein, UniProt Q9H213 1-219)
chain: T2 sequence
Consider B1, for which the binding entry in experiment [1] is on record as “binds”.

B2: Restin (endogenous) (protein, UniProt Q9H213 1-219)
chain: T2 sequence
For the molecule B2, in experiment [2], the binding entry is reported as “no binding”.

B3: His-tagged p73 (protein, UniProt O15350 1-636)
chain: T1 sequence
B3: the binding entry in experiment [3] is given as “binds”.

B4: p73 (endogenous) (protein, UniProt O15350 1-636)
chain: T1 sequence
Turning to B4, the binding entry in experiment [4] is “binds”.
